No constants are given. Whether binding was seen depends on the method and setting. Some entries that bind do so weakly or less than the wild type.
Tests used:
Test in all cases: ELISA with truncated synthetic peptides of the CXCR2 N-terminus, single condition
[1] = biological target: pepN1-28
[2] = biological target: T1, pepN7-19
T1 sequence (peptide): ESDSFEDFWKGED

[3] = biological target: pepN1-35
[4] = biological target: T2, pepN1-19
T2 sequence (peptide): MEDFNMESDSFEDFWKGED

Measured: binding

B1: abN48-IgG1 (antibody, V domains shown)
VH: QVQLVQSGAEVKKPGSSVKVSCKASGGTLSSYAISWVRQAPGQGPEWMGWINPNSGGTNYAQKFQGRVTMTRDTSISTAYMELSRLRPDDTAVYYCASGYCSSTSCYDYWGQGTLVTVSS
VL: QAVLTQPSSLSASPGASVSLTCTLRSGINVGAYRIYWYQQKPGSPPQFLLRYKSDSDKQQGSGVPSRFSGSRDASANAGILLISGLRSEDEADYYCAIWHSSAWVFGGGTQLTVLG
notes: also called full-length abN48
binds: [1] | [2] | [3] | [4]

B2: abN48-2-IgG1 (antibody, V domains shown)
VH: QVQLVQSGAEVKKPGSSVKVSCKASGGTLSSYAISWVRQAPGQGPEWMGWINPNSGGTNYAQKFQGRVTMTRDTSISTAYMELSRLRPDDTAVYYCASGYCSRTRCYDYWGQGTLVTVSS
VL: QAVLTQPSSLSASPGASVSLTCTLRSGINVGAYRIYWYQQKPGSPPQFLLRYKSDSDKQQGSGVPSRFSGSRDASANAGILLISGLRSEDEADYYCAIWHSSAWVFGGGTQLTVLG
notes: Full-length human IgG1, lambda light chain; also called ab48-2-IgG1; abN48-2-IgG2 (as misprinted)
binds: [1] | [2] | [3] | [4]
